Experimental data taken from patent US20100041694A1, “AGRICULTURAL COMPOSITION FOR CONTROLLING OR PREVENTING PLANT DISEASES CAUSED BY PLANT PATHOGENIC MICROBES” (Sumitomo Chemical Company, Limited, priority 2007, published 2010).
Some of these results come from one statement about several compounds together.

Columns and labels:
Type in all cases: in vivo
Botrytis cinerea = assay: Preventing infection by cucumber gray mold, foliage application; conditions: cucumber (Sagami-Hanjiro), flowable formulation 500 ppm foliage application, then inoculation; 12° C. high humidity 5 days
Gibberella fujikuroi = assay: Rice bakanae disease, seed treatment; conditions: contaminated unhulled rice, seed treatment 200 g compound per 100 kg seeds, 1 month
Gaeumannomyces graminis = assay: Malt damping off, seed treatment; conditions: contaminated malt seeds, seed treatment 200 g compound per 100 kg seeds, 1 month
Fusarium oxysporum = assay: Preventing infection by tomato wilt by soil treatment (irrigation); conditions: tomato (Patio) in contaminated soil, 10 mg compound per pot by soil irrigation, 1 month
Sclerotinia sclerotiorum = assay: Preventing infection by cucumber Sclerotinia rot, foliage application; conditions: cucumber (Sagami-Hanjiro), flowable formulation 500 ppm foliage application, then inoculation; 18° C. high humidity 4 days
[1] = test system: Verticillium albo-atrum, V. dahliae, V. nigrescens; assay: Potato blue stem, soil irrigation treatment; conditions: potato (Danshaku) in contaminated soil, 10 mg compound per pot by soil irrigation, 2 months

SMILES: O=C(NCc1ccc(Oc2ccccc2)o1)c1ccc2ncccc2c1 [Compound 30]
- infected areas of treated plants relative to infected areas of untreated plants (Botrytis cinerea): ≤ 10%
- growth of treated plants (Gibberella fujikuroi): favorably grow at a level equivalent to that of plants that have grown from noncontaminated unhulled rice
- growth of treated plants (Gaeumannomyces graminis): favorably grow at a level equivalent to that of plants that grow from noncontaminated seeds
- blotches in treated plants (Fusarium oxysporum): no blotches are found
- growth of treated plants (Fusarium oxysporum): favorably grow at a level equivalent to that of plants that grow have in noncontaminated soil
- infected areas of treated plants relative to infected areas of untreated plants (Sclerotinia sclerotiorum): ≤ 10%
- blotches in treated plants [1]: no blotches are found
- growth of treated plants [1]: favorably grow at a level equivalent to that of plants that grow in noncontaminated soil

SMILES: O=C(NCc1ccc(Oc2ccccc2)s1)c1ccc2ncsc2c1 [Compound 36]
- infected areas of treated plants relative to infected areas of untreated plants (Botrytis cinerea): ≤ 10%
- growth of treated plants (Gibberella fujikuroi): favorably grow at a level equivalent to that of plants that have grown from noncontaminated unhulled rice
- growth of treated plants (Gaeumannomyces graminis): favorably grow at a level equivalent to that of plants that grow from noncontaminated seeds
- blotches in treated plants (Fusarium oxysporum): no blotches are found
- growth of treated plants (Fusarium oxysporum): favorably grow at a level equivalent to that of plants that grow have in noncontaminated soil
- infected areas of treated plants relative to infected areas of untreated plants (Sclerotinia sclerotiorum): ≤ 10%
- blotches in treated plants [1]: no blotches are found
- growth of treated plants [1]: favorably grow at a level equivalent to that of plants that grow in noncontaminated soil

SMILES: O=C(NCc1cccc(Oc2ccccc2)c1)c1ccc2ncccc2n1 [Compound 38]
- infected areas of treated plants relative to infected areas of untreated plants (Botrytis cinerea): ≤ 10%
- growth of treated plants (Gibberella fujikuroi): favorably grow at a level equivalent to that of plants that have grown from noncontaminated unhulled rice
- growth of treated plants (Gaeumannomyces graminis): favorably grow at a level equivalent to that of plants that grow from noncontaminated seeds
- blotches in treated plants (Fusarium oxysporum): no blotches are found
- growth of treated plants (Fusarium oxysporum): favorably grow at a level equivalent to that of plants that grow have in noncontaminated soil
- infected areas of treated plants relative to infected areas of untreated plants (Sclerotinia sclerotiorum): ≤ 10%
- blotches in treated plants [1]: no blotches are found
- growth of treated plants [1]: favorably grow at a level equivalent to that of plants that grow in noncontaminated soil

SMILES: O=C(NCc1ccc(OCc2ccccc2)cc1)c1ccc2ncccc2n1 [Compound 39]
- infected areas of treated plants relative to infected areas of untreated plants (Botrytis cinerea): ≤ 10%
- growth of treated plants (Gibberella fujikuroi): favorably grow at a level equivalent to that of plants that have grown from noncontaminated unhulled rice
- growth of treated plants (Gaeumannomyces graminis): favorably grow at a level equivalent to that of plants that grow from noncontaminated seeds
- blotches in treated plants (Fusarium oxysporum): no blotches are found
- growth of treated plants (Fusarium oxysporum): favorably grow at a level equivalent to that of plants that grow have in noncontaminated soil
- infected areas of treated plants relative to infected areas of untreated plants (Sclerotinia sclerotiorum): ≤ 10%
- blotches in treated plants [1]: no blotches are found
- growth of treated plants [1]: favorably grow at a level equivalent to that of plants that grow in noncontaminated soil

SMILES: O=C(NCc1ccco1)c1ccc2ncccc2c1 [Compound 43]
- infected areas of treated plants relative to infected areas of untreated plants (Botrytis cinerea): ≤ 10%
- growth of treated plants (Gibberella fujikuroi): favorably grow at a level equivalent to that of plants that have grown from noncontaminated unhulled rice
- growth of treated plants (Gaeumannomyces graminis): favorably grow at a level equivalent to that of plants that grow from noncontaminated seeds
- blotches in treated plants (Fusarium oxysporum): no blotches are found
- growth of treated plants (Fusarium oxysporum): favorably grow at a level equivalent to that of plants that grow have in noncontaminated soil
- infected areas of treated plants relative to infected areas of untreated plants (Sclerotinia sclerotiorum): ≤ 10%
- blotches in treated plants [1]: no blotches are found
- growth of treated plants [1]: favorably grow at a level equivalent to that of plants that grow in noncontaminated soil

SMILES: O=C(NCc1ccsc1)c1ccc2ncccc2c1 [Compound 46]
- infected areas of treated plants relative to infected areas of untreated plants (Botrytis cinerea): ≤ 10%
- growth of treated plants (Gibberella fujikuroi): favorably grow at a level equivalent to that of plants that have grown from noncontaminated unhulled rice
- growth of treated plants (Gaeumannomyces graminis): favorably grow at a level equivalent to that of plants that grow from noncontaminated seeds
- blotches in treated plants (Fusarium oxysporum): no blotches are found
- growth of treated plants (Fusarium oxysporum): favorably grow at a level equivalent to that of plants that grow have in noncontaminated soil
- infected areas of treated plants relative to infected areas of untreated plants (Sclerotinia sclerotiorum): ≤ 10%
- blotches in treated plants [1]: no blotches are found
- growth of treated plants [1]: favorably grow at a level equivalent to that of plants that grow in noncontaminated soil

SMILES: O=C(NCc1cccc(F)c1)c1ccc2ncccc2c1 [Compound 47]
- infected areas of treated plants relative to infected areas of untreated plants (Botrytis cinerea): ≤ 10%
- growth of treated plants (Gibberella fujikuroi): favorably grow at a level equivalent to that of plants that have grown from noncontaminated unhulled rice
- growth of treated plants (Gaeumannomyces graminis): favorably grow at a level equivalent to that of plants that grow from noncontaminated seeds
- blotches in treated plants (Fusarium oxysporum): no blotches are found
- growth of treated plants (Fusarium oxysporum): favorably grow at a level equivalent to that of plants that grow have in noncontaminated soil
- infected areas of treated plants relative to infected areas of untreated plants (Sclerotinia sclerotiorum): ≤ 10%
- blotches in treated plants [1]: no blotches are found
- growth of treated plants [1]: favorably grow at a level equivalent to that of plants that grow in noncontaminated soil

SMILES: O=C(NCc1ccc(Oc2ccccc2)s1)c1ccc2ncccc2n1 [Compound 54]
- infected areas of treated plants relative to infected areas of untreated plants (Botrytis cinerea): ≤ 10%
- growth of treated plants (Gibberella fujikuroi): favorably grow at a level equivalent to that of plants that have grown from noncontaminated unhulled rice
- growth of treated plants (Gaeumannomyces graminis): favorably grow at a level equivalent to that of plants that grow from noncontaminated seeds
- blotches in treated plants (Fusarium oxysporum): no blotches are found
- growth of treated plants (Fusarium oxysporum): favorably grow at a level equivalent to that of plants that grow have in noncontaminated soil
- infected areas of treated plants relative to infected areas of untreated plants (Sclerotinia sclerotiorum): ≤ 10%
- blotches in treated plants [1]: no blotches are found
- growth of treated plants [1]: favorably grow at a level equivalent to that of plants that grow in noncontaminated soil

SMILES: O=C(NCc1cccc(OCC2CC2)c1F)c1ccc2ncccc2n1 [Compound 64]
- infected areas of treated plants relative to infected areas of untreated plants (Botrytis cinerea): ≤ 10%
- growth of treated plants (Gibberella fujikuroi): favorably grow at a level equivalent to that of plants that have grown from noncontaminated unhulled rice
- growth of treated plants (Gaeumannomyces graminis): favorably grow at a level equivalent to that of plants that grow from noncontaminated seeds
- blotches in treated plants (Fusarium oxysporum): no blotches are found
- growth of treated plants (Fusarium oxysporum): favorably grow at a level equivalent to that of plants that grow have in noncontaminated soil
- infected areas of treated plants relative to infected areas of untreated plants (Sclerotinia sclerotiorum): ≤ 10%
- blotches in treated plants [1]: no blotches are found
- growth of treated plants [1]: favorably grow at a level equivalent to that of plants that grow in noncontaminated soil

SMILES: CC(C)=CCOc1cccc(CNC(=O)c2ccc3ncsc3c2)c1 [Compound 76]
- infected areas of treated plants relative to infected areas of untreated plants (Botrytis cinerea): ≤ 10%
- growth of treated plants (Gibberella fujikuroi): favorably grow at a level equivalent to that of plants that have grown from noncontaminated unhulled rice
- growth of treated plants (Gaeumannomyces graminis): favorably grow at a level equivalent to that of plants that grow from noncontaminated seeds
- blotches in treated plants (Fusarium oxysporum): no blotches are found
- growth of treated plants (Fusarium oxysporum): favorably grow at a level equivalent to that of plants that grow have in noncontaminated soil
- infected areas of treated plants relative to infected areas of untreated plants (Sclerotinia sclerotiorum): ≤ 10%
- blotches in treated plants [1]: no blotches are found
- growth of treated plants [1]: favorably grow at a level equivalent to that of plants that grow in noncontaminated soil

SMILES: O=C(NCc1ccc(Oc2ccccc2)c(F)c1)c1ccc2ncccc2c1 [Compound 77]
- infected areas of treated plants relative to infected areas of untreated plants (Botrytis cinerea): ≤ 10%
- growth of treated plants (Gibberella fujikuroi): favorably grow at a level equivalent to that of plants that have grown from noncontaminated unhulled rice
- growth of treated plants (Gaeumannomyces graminis): favorably grow at a level equivalent to that of plants that grow from noncontaminated seeds
- blotches in treated plants (Fusarium oxysporum): no blotches are found
- growth of treated plants (Fusarium oxysporum): favorably grow at a level equivalent to that of plants that grow have in noncontaminated soil
- infected areas of treated plants relative to infected areas of untreated plants (Sclerotinia sclerotiorum): ≤ 10%
- blotches in treated plants [1]: no blotches are found
- growth of treated plants [1]: favorably grow at a level equivalent to that of plants that grow in noncontaminated soil

SMILES: O=C(NCc1ccc(Cc2cccc(F)c2)o1)c1ccc2ncccc2c1 [Compound 81]
- infected areas of treated plants relative to infected areas of untreated plants (Botrytis cinerea): ≤ 10%
- growth of treated plants (Gibberella fujikuroi): favorably grow at a level equivalent to that of plants that have grown from noncontaminated unhulled rice
- growth of treated plants (Gaeumannomyces graminis): favorably grow at a level equivalent to that of plants that grow from noncontaminated seeds
- blotches in treated plants (Fusarium oxysporum): no blotches are found
- growth of treated plants (Fusarium oxysporum): favorably grow at a level equivalent to that of plants that grow have in noncontaminated soil
- infected areas of treated plants relative to infected areas of untreated plants (Sclerotinia sclerotiorum): ≤ 10%
- blotches in treated plants [1]: no blotches are found
- growth of treated plants [1]: favorably grow at a level equivalent to that of plants that grow in noncontaminated soil
